Experimental data taken from patent publication US8883962B2 (Massachusetts Institute of Technology, priority 2012, dated 2014).

Test: general procedure: Fmoc solid-phase peptide synthesis; Rink amide AM resin; HATU
Conditions: whole synthesis, scale 15-μmol

Row | Substance | final HPLC purity (520 nm and 220 nm) | final HPLC purity (280 nm and 220 nm)
1 | Palmitic acid-PPPDDK(ZPI)-CONH2 (N-palmitoyl, ZP1 on Lys, C-amide) | ≧95% | –
2 | zinquin-FxrFxrFxr-CONH2 | – | ≧95%
